The list shows only some results of the screen, not a fair sample: it is rich in T/C values a quarter to a half above the control, in often repeated tests (any T/C) and in doses without a T/C. Further doses and runs are listed elsewhere. T/C gives the treated animals as a percentage of the vehicle group. Some doses have a count of surviving animals in place of a T/C: the source holds a T/C of zero for them, seemingly a mark for toxic or unscored doses. Some survivor counts are full or nearly so, which does not show that the dose was tolerated: the source hardly ever lists a survival T/C far under the control, and the zero likely stands for such cases as well. Survivors were counted at the toxicity check, usually on the fifth day, unless a day is given; later deaths do not show. Schedule codes are those of the source, read here as Q, the interval in days (D) or hours (H), X, the number of doses. Some doses were run more than once; the values are given in rising order. Where survival is the endpoint, this PubChem deposit counts one and a half times the control or more as active, and values a quarter to a half above the control carry no call in these data; other NCI protocols may use other cut-offs. Some T/C values are followed by the survivors on the day toxicity was checked, most often the fifth; without a count, all were alive then.

The assay concerns CD2F1 mice, L1210 leukemia ip, survival T/C. As to the kind of experiment: NCI In Vivo Anticancer Drug Screen. Data for tumor model L1210 Leukemia (intraperitoneal) in CD2F1 (CDF1) mice. To be noted: higher T/C = longer survival. The procedure, abridged: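 Each value reflects a quotient of treated over vehicle control outcomes in mice with a transplanted tumor.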
Where [1] appears, read: T/C endpoint: mean survival time, dose: 100.0 mg/kg/injection, schedule: Q01DX009 (ip), vehicle: saline.
The mark [2] stands for this setting: T/C endpoint: mean survival time, dose: 200.0 mg/kg/injection, schedule: Q04DX003 (ip), vehicle: saline with Tween-80.
Where [3] appears, read: T/C endpoint: mean survival time, dose: 400.0 mg/kg/injection, schedule: Q04DX003 (ip), vehicle: saline with Tween-80.
Where [4] appears, read: T/C endpoint: mean survival time, dose: 200.0 mg/kg/injection, schedule: Q01DX009 (ip), vehicle: saline with Tween-80.
Setting [5] is: T/C endpoint: mean survival time, dose: 400.0 mg/kg/injection, schedule: Q01DX009 (ip), vehicle: saline with Tween-80.
The mark [6] stands for this setting: T/C endpoint: mean survival time, dose: 100.0 mg/kg/injection, schedule: Q04DX003 (ip), vehicle: saline with Tween-80.
The mark [7] stands for this setting: T/C endpoint: mean survival time, dose: 400.0 mg/kg/injection, schedule: Q04DX003 (ip), vehicle: saline.
Where [8] appears, read: T/C endpoint: mean survival time, dose: 100.0 mg/kg/injection, schedule: Q01DX009 (ip), vehicle: saline with Tween-80.
[9] abbreviates: T/C endpoint: mean survival time, dose: 400.0 mg/kg/injection, schedule: Q01DX001 (ip), vehicle: saline with Tween-80.
Setting [10] is: T/C endpoint: mean survival time, dose: 400.0 mg/kg/injection, schedule: Q04DX002 (ip), vehicle: saline with Tween-80.
The mark [11] stands for this setting: T/C endpoint: mean survival time, dose: 200.0 mg/kg/injection, schedule: Q01DX001 (ip), vehicle: saline with Tween-80.
Setting [12] is: T/C endpoint: mean survival time, dose: 200.0 mg/kg/injection, schedule: Q01DX001 (ip), vehicle: saline.

As for `c1ccc([P+](Cc2ccc(C[P+](c3ccccc3)(c3ccccc3)c3ccccc3)cc2)(c2ccccc2)c2ccccc2)cc1`, the survivor count by setting is: (T/C endpoint: mean survival time, dose: 0.63 mg/kg/injection, schedule: Q04DX003 (ip), vehicle: saline with Tween-80) 6 of 6; (T/C endpoint: mean survival time, dose: 1.25 mg/kg/injection, schedule: Q04DX003 (ip), vehicle: saline with Tween-80) 2 of 6; (T/C endpoint: mean survival time, dose: 2.5 mg/kg/injection, schedule: Q04DX003 (ip), vehicle: saline with Tween-80) 0 of 6; (T/C endpoint: mean survival time, dose: 5.0 mg/kg/injection, schedule: Q04DX003 (ip), vehicle: saline with Tween-80) 0 of 6.
In the case of `CC(C)(C)C(=O)C#Cc1ccccc1`, the survivor count under setting [1] was 5 of 6.
As to `CC1=C(C)CS(=O)(=O)C1`, the survivor count reads like this: under setting [2], 4 of 6; under setting [3], 0 of 6.
Turning to `CC(C)N(C(C)C)S(=O)(=O)c1ccccc1C(O)(c1ccccc1)c1ccccc1`, the survivor count is reported as 6 of 6 under setting [4] and 6 of 6 under setting [5].
In the case of `Cc1cc(N(CCCOS(C)(=O)=O)CCCOS(C)(=O)=O)ccc1C=Nc1ccc(-c2csc(COc3ccccc3)n2)cc1`, the survivor count under setting [5] was 6 of 6.
Consider `Cc1ccc(NNC(N)=O)cc1`, for which the survivor count is, setting by setting: (T/C endpoint: mean survival time, dose: 100.0 mg/kg/injection, schedule: Q01DX001 (ip), vehicle: Klucel (hydroxypropylcellulose) (HPC)) 1 of 3; (T/C endpoint: mean survival time, dose: 200.0 mg/kg/injection, schedule: Q01DX001 (ip), vehicle: Klucel (hydroxypropylcellulose) (HPC)) 0 of 3; (T/C endpoint: mean survival time, dose: 400.0 mg/kg/injection, schedule: Q01DX001 (ip), vehicle: Klucel (hydroxypropylcellulose) (HPC)) 0 of 3.
Regarding `CC1=Nc2cc(C)c(C)cc2N2C1=CC1=C(C(=O)c3cc4ccccc4cc3C1=O)C2C` (stereo unspecified), the survivor count reads like this: under setting [6], 3 of 3; under setting [7], 1 of 3.
Regarding `C=CCN(CC=C)C(=O)OCC`, the survivor count under setting [5] is 5 of 6.
Turning to `CC(=O)OCC1OC(N=C=S)C(OC(C)=O)C(OC(C)=O)C1OC(C)=O` (stereo unspecified), the survivor count is, setting by setting: under setting [8], 0 of 3; under setting [4], 0 of 3.
As to `CSc1ccc(N=C/C=C/c2ccccc2)cc1`, under setting [2], the survivor count is 6 of 6.
Take `O=C(NC/C=C/Br)Nc1cccc2c1CCCC2`: the survivor count under setting [9] is given as 6 of 6.
Regarding `CC12C=CC(=O)C=C1CCCC2` (stereo unspecified), the survivor count by setting is: (T/C endpoint: mean survival time, dose: 100.0 mg/kg/injection, schedule: Q04DX002 (ip), vehicle: saline with Tween-80) 1 of 3; (T/C endpoint: mean survival time, dose: 200.0 mg/kg/injection, schedule: Q04DX002 (ip), vehicle: saline with Tween-80) 0 of 3; under setting [10], 0 of 3.
`CC[C@@H](C)[C@H]([C@H](CC(=O)N1CCC[C@@H]1[C@@H](OC)[C@H](C)C(=O)N[C@H](Cc1ccccc1)c1nccs1)OC)N(C)C(=O)[C@H](NC(=O)[C@@H](C(C)C)N(C)C)C(C)C`: the T/C runs as follows: (T/C endpoint: median survival time, dose: 3.25 micrograms/kg/injection, schedule: Q01DX005 (ip), vehicle: saline + alcohol) 138 % of control; (T/C endpoint: median survival time, dose: 13.0 micrograms/kg/injection, schedule: Q01DX005 (ip), vehicle: saline + alcohol) 148 % of control.
Take `CC(CCC(=O)O)C1CCC2C3CCC4CC(O)CCC4(C)C3CC(O)C12C` (stereo unspecified): the survivor count is, setting by setting: (T/C endpoint: mean survival time, dose: 50.0 mg/kg/injection, schedule: Q01DX001 (ip), vehicle: saline with Tween-80) 6 of 6; under setting [11], 0 of 6.
`O=C(NCC#CCN1CCCC1)Nc1cccc(Cl)c1`: the survivor count runs as follows: under setting [11], 5 of 6; under setting [9], 0 of 6.
As for `COc1cc(OC)c(NC(=O)Nc2cc(C)on2)cc1Cl`, the survivor count is recorded as 3 of 3 (T/C endpoint: mean survival time, dose: 50.0 mg/kg/injection, schedule: Q01DX009 (ip), vehicle: saline with Tween-80); 3 of 3 under setting [8]; 3 of 3 under setting [4].
Take `CC1=Nc2ccccc2N2C1=CC1=C(C(=O)c3cc4ccccc4cc3C1=O)C2C` (stereo unspecified): the survivor count (T/C endpoint: mean survival time, dose: 100.0 mg/kg/injection, schedule: Q04DX003 (ip), vehicle: saline) is on record as 2 of 3.
`Cn1c(=O)c2[nH]c(Cl)nc2n(C)c1=O`: the survivor count (T/C endpoint: mean survival time, dose: 200.0 mg/kg/injection, schedule: Q01DX005 (ip), vehicle: water) is 1 of 6.
`COc1cc2cc3c4cc5c(cc4cc[n+]3c(C)c2cc1OC)OCO5` (tested in a mixture with another compound): the survivor count by setting is: under setting [2], 1 of 6; under setting [3], 0 of 6.
Take `CC(=O)[O][Hg][O]C(C)=O`: the survivor count (T/C endpoint: mean survival time, dose: 10.0 mg/kg/injection, schedule: Q04DX003 (ip), vehicle: saline with Tween-80) was 0 of 6; the survivor count (T/C endpoint: mean survival time, dose: 20.0 mg/kg/injection, schedule: Q04DX003 (ip), vehicle: saline with Tween-80) is 0 of 6; the survivor count under setting [6] is 0 of 6; the survivor count under setting [2] is 0 of 6; the survivor count under setting [3] is on record as 0 of 6.
Turning to `C/C(C#N)=C/c1ccccc1`, the survivor count under setting [3] is recorded as 0 of 6.
Consider `O=[N+]([O-])c1ccc(N2CCOCC2)c2c1no[n+]2[O-]`, for which, under “T/C endpoint: median survival time, dose: 200.0 mg/kg/injection, schedule: Q01DX009 (ip), vehicle: saline with Tween-80”, the survivor count is 4 of 6.
`Cn1c(CS)nc2ccccc21`: the survivor count under setting [10] is 0 of 3.
Turning to `O=c1cc[nH]c(=O)o1`, the T/C reads like this: (T/C endpoint: mean survival time, dose: 19.0 mg/kg/injection, schedule: Q01DX009 (ip), vehicle: water) 128 % of control; (T/C endpoint: mean survival time, dose: 28.0 mg/kg/injection, schedule: Q01DX009 (ip), vehicle: water) 128 % of control; (T/C endpoint: median survival time, dose: 19.0 mg/kg/injection, schedule: Q01DX009 (ip), vehicle: water) 136 % of control; (T/C endpoint: median survival time, dose: 28.0 mg/kg/injection, schedule: Q01DX009 (ip), vehicle: water) 141 % of control [5 of 6 alive]; (T/C endpoint: median survival time, dose: 42.0 mg/kg/injection, schedule: Q01DX009 (ip), vehicle: water) 137 % of control. Also, the survivor count (T/C endpoint: mean survival time, dose: 63.0 mg/kg/injection, schedule: Q01DX009 (ip), vehicle: water) was 2 of 6 and the survivor count under setting [3] is reported as 1 of 6.
As to `CC(=O)OCC1OC(n2cnc(N)nc2=O)C(OC(C)=O)C1OC(C)=O` (stereo unspecified), the T/C reads like this: (T/C endpoint: mean survival time, dose: 1.56 mg/kg/injection, schedule: Q01DX009 (ip), vehicle: saline) 130 % of control; (T/C endpoint: mean survival time, dose: 3.12 mg/kg/injection, schedule: Q01DX009 (ip), vehicle: saline) 147 % of control; (T/C endpoint: mean survival time, dose: 6.25 mg/kg/injection, schedule: Q01DX009 (ip), vehicle: saline) 148 % of control; (T/C endpoint: mean survival time, dose: 12.5 mg/kg/injection, schedule: Q01DX009 (ip), vehicle: saline) 136 % of control. Moreover, the survivor count reads like this: (T/C endpoint: mean survival time, dose: 50.0 mg/kg/injection, schedule: Q01DX009 (ip), vehicle: saline) 3 of 6 and 6 of 6; under setting [1], 1 of 6 and 6 of 6.
As for `CCOC(=O)C(C(=O)OCC)C1c2ccccc2C(=O)N(CCN(C)C)c2ccccc21` (stereo unspecified), the survivor count is 0 of 6 under setting [12] and 0 of 6 (T/C endpoint: mean survival time, dose: 400.0 mg/kg/injection, schedule: Q01DX001 (ip), vehicle: saline).
As to `CCCCOC(=O)C(C(=O)OCCCC)(C(=O)OCCCC)C(C(=O)OCCCC)(C(=O)OCCCC)C(=O)OCCCC`, the survivor count under setting [12] is 3 of 3.
For the compound `CC(=O)Nc1ccn(C2OC(CO)C(O)C2O)c(=O)n1` (stereo unspecified), the T/C runs as follows: (T/C endpoint: mean survival time, dose: 6.25 mg/kg/injection, schedule: Q03HX024 (ip), vehicle: saline) 138 % of control; (T/C endpoint: mean survival time, dose: 18.8 mg/kg/injection, schedule: Q01DX008 (ip), vehicle: saline) 129 % of control; (T/C endpoint: mean survival time, dose: 200.0 mg/kg/injection, schedule: Q04DX003 (ip), vehicle: saline) 126 % of control; under setting [7], 126 % of control.
On to `Cc1ccc(NC(=O)Nc2ccccc2C(N)=O)cc1[N+](=O)[O-]`, for which the survivor count under setting [4] is 3 of 3.
On to `C1CCC(C2CCCC[N-]2)[N-]C1.O=C(O)C1CCC[N-]1.[Cl][Pt]` (stereo unspecified), for which the survivor count (T/C endpoint: median survival time, dose: 320.0 mg/kg/injection, schedule: Q04DX003 (ip), vehicle: saline) is 4 of 4.

The values above are taken from PubChem BioAssay AID256 (DTP/NCI, 2004).
